Data as given in PubChem BioAssay AID1259308 (NCATS, 2017).

- Assay: 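Candidate targets for better recombinant protein yield in mammalian cells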 (primary screen)
- Cell system: human HEK293 embryonic kidney cells stably expressing firefly luciferase (HEK-CMV-Luc2-Hygro)
- Reagent: single siRNA against human genes, 0.8 pmol siRNA per well
- Timing: 72 h
- Measurement: 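Luciferase light (ONE-Glo) measured on one replicate plate set and viability (CellTiter-Glo) on the other, scaled to a negative control siRNA, with robust z-scores and luciferase per cell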
- Scale: total luciferase, z-score and total luciferase, % of control: higher = more reporter protein produced; luciferase per cell, z-score: higher = more reporter output per viable cell; viable cells, % of control: higher = more viable cells
- Rule for the call: 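Active when the median/MAD z-score for overall luciferase is greater than 3; a gene was taken forward for validation with new siRNAs if at least two of its three siRNAs passed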
- Meaning of the calls: active = raised luciferase; inactive = no rise
The deposit covers about 59,000 reagents; below is a random part of them. In the full data, about 1,510 (2.6%) got an active call. 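Calls use total luciferase alone and ignore viability, so some active siRNAs may act by altering cell number.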 A number with no mark means an inactive call. The numbers tell different reagents against one gene apart.

gene knocked down	siRNA no.	total luciferase, z-score	total luciferase, % of control	luciferase per cell, z-score	viable cells, % of control
PYROXD1 (GeneID 79912)	1	1.81	118	0.994	101
PYROXD1 (GeneID 79912)	2	-0.322	75.5	-0.659	100
PYROXD1 (GeneID 79912)	3	1.37	109	1.23	88.2
NEK2 (GeneID 4751)	1	1.91	120	1.42	92.3
NEK2 (GeneID 4751)	2	-1.1	60.1	-0.253	71.8
NEK2 (GeneID 4751)	3	-0.668	68.6	-0.806	94.8
ZFYVE27 (GeneID 118813)	1	0.677	95.3	0.609	90.8
ZFYVE27 (GeneID 118813)	2	-0.873	64.5	-0.256	77.1
ZFYVE27 (GeneID 118813)	3	-0.719	67.6	-0.699	90.8
ECM2 (GeneID 1842)	1	0.184	85.6	0.264	89.2
ECM2 (GeneID 1842)	2	-0.331	75.3	-0.313	91.4
ECM2 (GeneID 1842)	3	0.132	84.5	-0.0731	96.3
CCNH (GeneID 902)	1	-0.442	73.1	-0.662	97.2
CCNH (GeneID 902)	2	0.517	92.2	-0.107	106
CCNH (GeneID 902)	3	-0.4	73.9	-0.321	89.9
MBD4 (GeneID 8930)	1	-0.909	63.8	-1.14	96.2
MBD4 (GeneID 8930)	2	-0.0876	80.1	-0.5	102
MBD4 (GeneID 8930)	3	0.838	98.6	0.827	88.6
TUBGCP5 (GeneID 114791)	1	0.118	84.2	-0.432	105
TUBGCP5 (GeneID 114791)	2	-0.06	80.7	0.132	87.1
TUBGCP5 (GeneID 114791)	3	1.59	114	1	97.5
ITGA8 (GeneID 8516)	1	0.518	92.2	0.232	96.9
ITGA8 (GeneID 8516)	2	-0.0274	81.3	-0.158	94.7
ITGA8 (GeneID 8516)	3	0.606	93.9	-0.18	110
CLEC3B (GeneID 7123)	1	0.197	85.8	0.637	81.1
CLEC3B (GeneID 7123)	2	-0.955	62.9	-0.122	72.6
CLEC3B (GeneID 7123)	3	0.567	93.2	0.108	101
ASXL3 (GeneID 80816)	1	3.1 (active)	143	2.94	73.8
ASXL3 (GeneID 80816)	2	0.0126	82.1	0.597	78.4
ASXL3 (GeneID 80816)	3	0.858	99	0.776	90.1
SPHK1 (GeneID 8877)	1	-0.171	78.5	-0.302	94.9
SPHK1 (GeneID 8877)	2	0.818	98.1	0.462	97.1
SPHK1 (GeneID 8877)	3	-0.361	74.7	-0.358	91.7
GABARAPL2 (GeneID 11345)	1	1.94	120	1.42	92.5
GABARAPL2 (GeneID 11345)	2	0.0163	82.2	0.457	81.5
GABARAPL2 (GeneID 11345)	3	-1.31	55.9	-1.45	91.6
TBC1D22A-AS1 (GeneID 642757)	1	-0.75	67	-0.916	95.3
TBC1D22A-AS1 (GeneID 642757)	2	0.132	84.5	-0.607	111
TBC1D22A-AS1 (GeneID 642757)	3	0.19	85.7	-0.225	102

Part of the list above, set out differently.
ITGA8 (GeneID 8516) #1
- total luciferase, z-score: 0.518
- total luciferase, % of control: 92.2
- luciferase per cell, z-score: 0.232
- viable cells, % of control: 96.9

ITGA8 (GeneID 8516) #2
- total luciferase, z-score: -0.0274
- total luciferase, % of control: 81.3
- luciferase per cell, z-score: -0.158
- viable cells, % of control: 94.7

ITGA8 (GeneID 8516) #3
- total luciferase, z-score: 0.606
- total luciferase, % of control: 93.9
- luciferase per cell, z-score: -0.18
- viable cells, % of control: 110

CLEC3B (GeneID 7123) #1
- total luciferase, z-score: 0.197
- total luciferase, % of control: 85.8
- luciferase per cell, z-score: 0.637
- viable cells, % of control: 81.1
